Test results published in paper PMC4597190.

Chains of the proteins cited; added tags and fusions are not shown.
UniProt P34152: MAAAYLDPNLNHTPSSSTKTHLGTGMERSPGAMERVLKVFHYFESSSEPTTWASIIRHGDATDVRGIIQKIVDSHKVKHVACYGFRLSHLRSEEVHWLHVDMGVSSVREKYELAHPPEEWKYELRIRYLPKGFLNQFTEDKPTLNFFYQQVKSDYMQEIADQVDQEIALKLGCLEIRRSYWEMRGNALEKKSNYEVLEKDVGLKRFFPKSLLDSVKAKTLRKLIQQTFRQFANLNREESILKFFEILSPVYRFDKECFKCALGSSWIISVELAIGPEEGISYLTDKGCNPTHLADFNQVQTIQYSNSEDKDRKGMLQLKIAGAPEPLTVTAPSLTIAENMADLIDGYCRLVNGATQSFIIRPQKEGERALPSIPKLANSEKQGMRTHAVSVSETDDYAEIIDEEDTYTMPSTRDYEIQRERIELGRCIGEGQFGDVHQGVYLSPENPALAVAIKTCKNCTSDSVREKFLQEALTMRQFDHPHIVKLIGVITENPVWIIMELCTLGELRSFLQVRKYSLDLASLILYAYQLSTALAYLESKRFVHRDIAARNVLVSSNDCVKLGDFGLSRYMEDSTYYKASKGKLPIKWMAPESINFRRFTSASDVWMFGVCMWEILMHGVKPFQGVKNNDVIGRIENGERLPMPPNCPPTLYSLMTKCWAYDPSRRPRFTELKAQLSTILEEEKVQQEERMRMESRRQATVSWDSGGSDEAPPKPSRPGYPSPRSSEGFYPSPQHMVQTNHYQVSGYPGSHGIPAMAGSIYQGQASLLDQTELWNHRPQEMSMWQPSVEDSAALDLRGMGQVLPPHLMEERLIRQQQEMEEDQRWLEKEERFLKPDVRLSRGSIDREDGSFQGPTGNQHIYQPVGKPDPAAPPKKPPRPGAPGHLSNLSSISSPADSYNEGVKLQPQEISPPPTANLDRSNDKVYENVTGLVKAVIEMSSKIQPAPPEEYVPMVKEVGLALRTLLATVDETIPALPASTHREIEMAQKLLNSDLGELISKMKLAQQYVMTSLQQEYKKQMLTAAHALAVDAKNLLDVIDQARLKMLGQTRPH
UniProt Q8VI33: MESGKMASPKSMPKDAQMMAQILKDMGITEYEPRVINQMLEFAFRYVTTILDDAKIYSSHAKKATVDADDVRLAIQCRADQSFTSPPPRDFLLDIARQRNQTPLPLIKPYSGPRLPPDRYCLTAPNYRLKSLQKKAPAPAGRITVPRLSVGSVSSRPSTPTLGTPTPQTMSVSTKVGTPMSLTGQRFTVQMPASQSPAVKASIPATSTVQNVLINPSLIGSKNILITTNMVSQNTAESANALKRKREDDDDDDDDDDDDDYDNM

Target: Focal adhesion kinase (FAK), wild-type, re-expressed in FAK-deficient SCC cells (UniProt P34152)
Experiment: affinity purification with mass spectrometry; FAK immunoprecipitation from purified nuclear extracts, on-bead digestion, quantitative label-free LC-MS/MS; SCC FAK-WT over SCC FAK-/- controls

“TAF9, TBP-associated factor, core component of the TFIID complex (from UniProt Q8VI33 1-264)” was tested, and the binding was “binds”.

No constants are given. Whether binding was seen depends on the method and setting. Binding seen in cells or lysates may run through a third protein. These calls come from enrichment with a bait or labelling near it, and not all partners need be listed.
